According to publication PMC11074315:
These are yes or no findings as the source states them, for the method shown. For some of these results: Binding seen in cells or lysates may run through a third protein. Some results given as binding are weak or reduced against the parent protein; the word gives no strength. Tags and fused reporters may be left off the sequences shown. One block for each binder: values may come before it.

What was measured:
[1] = biological target: T1, AUR1 (alpha-Aurora kinase), yeast two-hybrid fusion (Arabidopsis thaliana) (UniProt Q9M077); assay: two-hybrid; pGADT7-GW (AD) and pGBKT7-GW (BD) fusions in yeast strain AH109; growth on -L/-W/-H/-A selection media, 30 °C, 2 days
T1 sequence: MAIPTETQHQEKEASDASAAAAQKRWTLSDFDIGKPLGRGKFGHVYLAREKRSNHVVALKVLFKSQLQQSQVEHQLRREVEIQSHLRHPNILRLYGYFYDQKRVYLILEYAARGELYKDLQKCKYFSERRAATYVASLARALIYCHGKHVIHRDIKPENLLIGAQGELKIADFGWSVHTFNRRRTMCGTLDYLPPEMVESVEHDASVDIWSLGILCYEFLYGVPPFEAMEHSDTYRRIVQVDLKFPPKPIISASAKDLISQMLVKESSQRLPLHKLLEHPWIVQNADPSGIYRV

[2] = biological target: T2, AUR3 (beta-group Aurora kinase), yeast two-hybrid fusion (Arabidopsis thaliana) (UniProt O64629); assay: as above
T2 sequence: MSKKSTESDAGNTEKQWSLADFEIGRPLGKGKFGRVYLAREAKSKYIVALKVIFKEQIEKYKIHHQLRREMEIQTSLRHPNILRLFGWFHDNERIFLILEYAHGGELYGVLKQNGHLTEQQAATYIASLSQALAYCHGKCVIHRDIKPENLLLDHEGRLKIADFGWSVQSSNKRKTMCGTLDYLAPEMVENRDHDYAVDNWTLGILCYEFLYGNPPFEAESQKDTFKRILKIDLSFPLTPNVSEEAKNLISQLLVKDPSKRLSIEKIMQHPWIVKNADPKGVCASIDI

[3] = biological target: T3, AUR1, BiFC fusion (Arabidopsis thaliana) (UniProt Q9M077); assay: split reporter; BiFC with nYFP and cYFP fusions co-infiltrated into N. benthamiana leaves; YFP signal read after 48 hours
T3 sequence: T1 sequence

[4] = biological target: T4, AUR3, BiFC fusion (Arabidopsis thaliana) (UniProt O64629); assay: as above
T4 sequence: T2 sequence

binding [1]: binds | binding [2]: no binding
B1: MAP65-3, full length, yeast two-hybrid fusion (protein, UniProt Q9FHM4 1-707)
chain: MASVQKDPILQVETTCGSLLFELQIIWDEVGETETDRDQMLLELERECLEVYRRKVDQANRCRAQLRQAIADAEAQLAAICSAMGERPVHIRQSDQSVGSLKQELGRILPELEEMQKRKVERRNQFIVVMEQIDSITNDIKGQGELVHSEPLIDETNLSMRKLEELHCQLQVLQKEKIDRVETIRKHLCTLYSHCSVLGMDFNEVVGQVNPTLSDPEGPRSLSDHTIEKLGAAVQKLMEVKIQRMQRLQDLATTMLELWNLMDTPIEEQQEYQHITCNIAASEHEITEANSLSEDFIKYVEAEVVRLDEVKASKMKELVLKKRSELEEICRKTHLLPVSDSAIDQTIVAIESGIVDATMVLEHLEQHISKIKEEALSRKEILERVEKWLSACDEESWLEEYNRDDNRYNAGRGAHLTLKRAEKARNLVTKLPGMVEALASKTIVWEQENGIEFLYDGIRLLSMLEEYNILRQEREEEHRRQRDQKKLQGQLIAEQEALYGSKPSPSKPLGGKKAPRMSTGGASNRRLSLGAAMHQTPKPNKKADHRHNDGALSNGRRGLDIAGLPSRKQSMNPSEMLQSPLVRKPFSPISTTVVASKANIATTTTQQLPKNNAVNEISSFATPIKNNNILRNLEEEKMMTMMMQTPKNVAAMIPIPSTPATVSVPMHTAPTPFTNNARLMSEKPEVVEYSFEERRLAFMLQSECRLV

binding [3]: binds | binding [4]: no binding
B2: MAP65-3, BiFC fusion (protein, UniProt Q9FHM4 1-707)
chain: B1 chain
